The values below come from paper PMC11964227, “Critical functions and key interactions mediated by the RNase E scaffolding domain in Pseudomonas aeruginosa” (PLOS Genetics, 2025).

Protein sequences, listed by entry. Tags and fused reporters are not part of them. Lines headed by an entry give the natural chain unless they say otherwise; changes in a name come on top. Residues count along the entry.
UniProt Q9HZM8: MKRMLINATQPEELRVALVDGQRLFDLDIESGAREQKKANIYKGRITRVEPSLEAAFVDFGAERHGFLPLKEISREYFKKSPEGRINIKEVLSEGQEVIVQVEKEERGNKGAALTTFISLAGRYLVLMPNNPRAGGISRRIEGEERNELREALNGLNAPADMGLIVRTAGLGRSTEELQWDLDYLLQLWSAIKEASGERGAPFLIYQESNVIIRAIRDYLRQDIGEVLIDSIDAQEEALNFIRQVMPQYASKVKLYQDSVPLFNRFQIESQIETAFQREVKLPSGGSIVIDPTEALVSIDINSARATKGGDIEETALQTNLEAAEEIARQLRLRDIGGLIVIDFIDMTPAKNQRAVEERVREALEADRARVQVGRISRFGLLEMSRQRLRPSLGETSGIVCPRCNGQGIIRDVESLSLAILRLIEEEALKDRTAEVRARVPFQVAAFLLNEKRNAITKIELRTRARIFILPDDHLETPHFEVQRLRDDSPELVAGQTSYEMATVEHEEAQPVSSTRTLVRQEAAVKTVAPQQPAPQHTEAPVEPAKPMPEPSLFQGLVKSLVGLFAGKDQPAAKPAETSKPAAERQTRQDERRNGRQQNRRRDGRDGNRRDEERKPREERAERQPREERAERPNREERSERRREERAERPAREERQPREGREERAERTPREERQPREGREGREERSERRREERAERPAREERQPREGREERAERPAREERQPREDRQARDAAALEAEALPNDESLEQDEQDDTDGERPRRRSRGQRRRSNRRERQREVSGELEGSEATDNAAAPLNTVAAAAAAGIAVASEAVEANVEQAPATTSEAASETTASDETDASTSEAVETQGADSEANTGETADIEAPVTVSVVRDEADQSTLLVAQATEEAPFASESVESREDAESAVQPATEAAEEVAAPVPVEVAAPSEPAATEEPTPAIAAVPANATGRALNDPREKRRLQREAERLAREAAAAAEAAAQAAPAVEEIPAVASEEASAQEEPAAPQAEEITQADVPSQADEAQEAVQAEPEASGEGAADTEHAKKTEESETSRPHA
RNase E^1-529-Strep: residues 1-529 of Q9HZM8
UniProt Q9HZE0: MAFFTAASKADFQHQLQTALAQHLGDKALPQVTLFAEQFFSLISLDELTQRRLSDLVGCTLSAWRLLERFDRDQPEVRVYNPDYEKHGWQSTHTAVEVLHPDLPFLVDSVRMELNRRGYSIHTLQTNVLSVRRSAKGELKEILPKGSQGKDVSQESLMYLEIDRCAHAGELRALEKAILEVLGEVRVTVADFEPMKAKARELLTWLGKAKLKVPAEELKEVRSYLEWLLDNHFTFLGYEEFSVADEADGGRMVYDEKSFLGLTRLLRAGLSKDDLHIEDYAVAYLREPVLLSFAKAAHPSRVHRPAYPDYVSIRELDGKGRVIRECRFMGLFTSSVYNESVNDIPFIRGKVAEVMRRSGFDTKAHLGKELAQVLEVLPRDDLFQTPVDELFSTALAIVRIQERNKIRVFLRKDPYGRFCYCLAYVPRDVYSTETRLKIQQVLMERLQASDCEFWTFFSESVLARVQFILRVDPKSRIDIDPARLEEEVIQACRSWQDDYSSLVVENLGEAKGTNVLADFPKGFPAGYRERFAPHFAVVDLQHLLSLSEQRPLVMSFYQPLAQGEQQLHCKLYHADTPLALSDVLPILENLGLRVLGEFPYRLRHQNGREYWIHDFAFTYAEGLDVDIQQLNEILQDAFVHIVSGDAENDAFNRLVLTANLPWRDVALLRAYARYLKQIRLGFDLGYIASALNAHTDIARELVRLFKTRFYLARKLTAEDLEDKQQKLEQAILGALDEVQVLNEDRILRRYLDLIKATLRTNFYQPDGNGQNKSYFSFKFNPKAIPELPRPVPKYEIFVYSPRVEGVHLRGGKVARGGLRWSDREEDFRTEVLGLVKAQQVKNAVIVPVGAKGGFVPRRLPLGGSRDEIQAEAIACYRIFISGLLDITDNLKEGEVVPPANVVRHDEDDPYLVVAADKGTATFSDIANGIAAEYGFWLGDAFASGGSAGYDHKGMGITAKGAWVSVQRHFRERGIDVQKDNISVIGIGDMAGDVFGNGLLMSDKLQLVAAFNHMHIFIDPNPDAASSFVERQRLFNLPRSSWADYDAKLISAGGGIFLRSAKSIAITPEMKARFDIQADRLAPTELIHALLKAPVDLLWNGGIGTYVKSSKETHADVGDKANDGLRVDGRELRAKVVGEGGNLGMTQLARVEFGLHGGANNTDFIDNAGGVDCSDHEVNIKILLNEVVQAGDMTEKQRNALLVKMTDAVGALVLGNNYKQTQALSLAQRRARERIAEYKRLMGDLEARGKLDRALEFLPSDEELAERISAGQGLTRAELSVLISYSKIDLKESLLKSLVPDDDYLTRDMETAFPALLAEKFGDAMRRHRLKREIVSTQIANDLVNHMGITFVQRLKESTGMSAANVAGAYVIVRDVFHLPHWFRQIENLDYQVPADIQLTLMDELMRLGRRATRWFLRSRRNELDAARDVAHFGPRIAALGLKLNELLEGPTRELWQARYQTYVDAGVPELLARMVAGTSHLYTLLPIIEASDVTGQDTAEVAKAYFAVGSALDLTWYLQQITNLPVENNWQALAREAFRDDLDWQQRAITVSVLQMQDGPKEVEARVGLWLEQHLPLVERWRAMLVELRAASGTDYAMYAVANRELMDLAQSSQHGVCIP
UniProt Q9I689: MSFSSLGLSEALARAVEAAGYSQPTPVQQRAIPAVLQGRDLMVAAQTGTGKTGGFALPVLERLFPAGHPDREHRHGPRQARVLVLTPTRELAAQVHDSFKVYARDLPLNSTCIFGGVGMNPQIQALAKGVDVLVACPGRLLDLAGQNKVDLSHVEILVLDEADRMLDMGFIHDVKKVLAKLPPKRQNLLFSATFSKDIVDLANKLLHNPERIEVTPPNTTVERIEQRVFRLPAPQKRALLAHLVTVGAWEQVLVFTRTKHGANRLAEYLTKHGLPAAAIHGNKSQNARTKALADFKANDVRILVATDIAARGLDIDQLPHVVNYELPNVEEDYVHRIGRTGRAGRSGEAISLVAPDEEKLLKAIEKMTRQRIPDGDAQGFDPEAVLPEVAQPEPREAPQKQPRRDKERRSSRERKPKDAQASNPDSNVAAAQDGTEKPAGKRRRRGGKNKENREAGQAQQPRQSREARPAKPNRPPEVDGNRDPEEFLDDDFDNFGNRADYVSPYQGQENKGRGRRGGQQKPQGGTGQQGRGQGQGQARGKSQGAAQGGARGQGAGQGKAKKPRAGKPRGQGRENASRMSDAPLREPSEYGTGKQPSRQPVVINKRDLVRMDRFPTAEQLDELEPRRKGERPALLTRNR
UniProt Q9HWC8: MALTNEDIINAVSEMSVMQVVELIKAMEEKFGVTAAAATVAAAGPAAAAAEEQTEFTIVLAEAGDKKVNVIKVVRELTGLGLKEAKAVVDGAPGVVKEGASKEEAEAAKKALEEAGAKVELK
UniProt Q51561: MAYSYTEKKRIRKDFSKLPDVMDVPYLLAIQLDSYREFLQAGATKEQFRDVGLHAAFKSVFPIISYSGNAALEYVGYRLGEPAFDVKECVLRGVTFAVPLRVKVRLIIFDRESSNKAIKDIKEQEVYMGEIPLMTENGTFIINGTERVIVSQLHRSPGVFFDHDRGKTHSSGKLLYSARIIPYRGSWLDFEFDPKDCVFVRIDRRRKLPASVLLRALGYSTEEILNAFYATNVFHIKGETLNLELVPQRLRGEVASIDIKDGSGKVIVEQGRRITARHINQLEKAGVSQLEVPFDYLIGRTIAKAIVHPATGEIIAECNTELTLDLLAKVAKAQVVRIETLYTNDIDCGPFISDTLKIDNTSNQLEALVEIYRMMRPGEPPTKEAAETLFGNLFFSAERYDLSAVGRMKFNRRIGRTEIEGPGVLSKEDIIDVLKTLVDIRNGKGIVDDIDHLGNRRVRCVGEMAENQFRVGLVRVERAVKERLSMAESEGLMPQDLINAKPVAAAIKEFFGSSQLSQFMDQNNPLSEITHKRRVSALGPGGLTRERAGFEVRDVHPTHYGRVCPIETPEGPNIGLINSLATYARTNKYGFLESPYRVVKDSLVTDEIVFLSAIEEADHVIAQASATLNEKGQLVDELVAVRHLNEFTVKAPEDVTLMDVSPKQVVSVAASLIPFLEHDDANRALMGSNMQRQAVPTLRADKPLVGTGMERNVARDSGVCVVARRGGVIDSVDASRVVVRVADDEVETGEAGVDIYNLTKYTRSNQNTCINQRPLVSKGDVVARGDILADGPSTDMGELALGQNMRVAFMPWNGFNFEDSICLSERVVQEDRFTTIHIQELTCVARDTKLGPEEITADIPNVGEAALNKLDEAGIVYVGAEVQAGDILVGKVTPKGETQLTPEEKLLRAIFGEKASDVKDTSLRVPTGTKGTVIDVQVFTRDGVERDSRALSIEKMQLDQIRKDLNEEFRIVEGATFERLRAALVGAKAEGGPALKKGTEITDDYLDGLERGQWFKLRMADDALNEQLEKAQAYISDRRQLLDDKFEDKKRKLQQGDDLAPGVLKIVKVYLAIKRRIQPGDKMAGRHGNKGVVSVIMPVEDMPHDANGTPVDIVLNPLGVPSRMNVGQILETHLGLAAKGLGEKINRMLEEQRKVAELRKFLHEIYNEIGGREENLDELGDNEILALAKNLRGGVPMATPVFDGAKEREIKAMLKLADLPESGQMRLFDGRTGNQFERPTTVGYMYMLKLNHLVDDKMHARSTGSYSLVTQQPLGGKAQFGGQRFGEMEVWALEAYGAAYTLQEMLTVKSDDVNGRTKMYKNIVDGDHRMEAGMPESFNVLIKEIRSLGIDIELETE
UniProt Q9HWC9: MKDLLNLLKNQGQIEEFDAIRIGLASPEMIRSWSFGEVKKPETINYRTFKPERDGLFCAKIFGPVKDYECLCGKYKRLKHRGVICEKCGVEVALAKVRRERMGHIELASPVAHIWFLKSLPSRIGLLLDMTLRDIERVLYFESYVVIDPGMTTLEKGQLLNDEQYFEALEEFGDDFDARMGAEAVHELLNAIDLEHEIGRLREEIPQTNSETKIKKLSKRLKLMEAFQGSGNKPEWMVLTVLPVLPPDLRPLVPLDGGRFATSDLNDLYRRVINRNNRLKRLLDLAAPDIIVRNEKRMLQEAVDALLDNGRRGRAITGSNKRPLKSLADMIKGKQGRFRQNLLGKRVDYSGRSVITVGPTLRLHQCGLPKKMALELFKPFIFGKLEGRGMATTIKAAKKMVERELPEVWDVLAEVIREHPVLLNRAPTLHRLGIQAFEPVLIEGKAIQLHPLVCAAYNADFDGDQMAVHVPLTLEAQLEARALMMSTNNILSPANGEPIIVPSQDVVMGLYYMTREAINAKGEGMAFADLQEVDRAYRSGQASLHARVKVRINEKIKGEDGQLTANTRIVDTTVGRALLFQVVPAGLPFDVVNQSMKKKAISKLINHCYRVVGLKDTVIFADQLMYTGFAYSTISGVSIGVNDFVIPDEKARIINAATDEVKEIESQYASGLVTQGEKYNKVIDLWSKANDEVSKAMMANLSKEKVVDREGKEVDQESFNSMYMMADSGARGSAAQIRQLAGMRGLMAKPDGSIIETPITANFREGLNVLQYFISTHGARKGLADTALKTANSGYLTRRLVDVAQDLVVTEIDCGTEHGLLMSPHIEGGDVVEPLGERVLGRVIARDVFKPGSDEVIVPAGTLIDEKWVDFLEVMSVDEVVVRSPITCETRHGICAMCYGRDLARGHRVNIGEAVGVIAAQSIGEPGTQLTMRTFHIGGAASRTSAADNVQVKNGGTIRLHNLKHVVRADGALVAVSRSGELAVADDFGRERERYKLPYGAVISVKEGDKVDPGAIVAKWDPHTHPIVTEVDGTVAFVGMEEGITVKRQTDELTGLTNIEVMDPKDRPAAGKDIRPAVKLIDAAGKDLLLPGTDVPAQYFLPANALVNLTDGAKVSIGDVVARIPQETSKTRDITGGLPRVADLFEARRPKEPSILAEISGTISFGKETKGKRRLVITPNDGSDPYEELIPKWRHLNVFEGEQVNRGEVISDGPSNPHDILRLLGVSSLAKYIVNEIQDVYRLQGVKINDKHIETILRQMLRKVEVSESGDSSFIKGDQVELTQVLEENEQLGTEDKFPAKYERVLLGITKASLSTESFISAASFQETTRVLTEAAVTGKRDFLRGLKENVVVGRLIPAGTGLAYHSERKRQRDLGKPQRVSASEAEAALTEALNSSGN

Like-named read-outs stand apart in the source and are kept apart here. Results are given in words; binding and its absence hold for the method and conditions named. In cells and extracts the contact can be indirect. A yes stands for co-enrichment or nearness to the bait. Other partners may have been found. For some of these results: No binding means not detected with the bait.

Experiment in all cases: affinity purification with mass spectrometry; Strep-tagged RNase E bait from PAO1 lysates on MagStrep Strep-Tactin XT beads, 20 mM Tris (pH 10), 250 mM NaCl, 10% glycerol, 4°C; LC-MS/MS of the beads; duplicates; untagged PAO1 WT as control
The target of test [1] is RNase E^1-1057-Strep (P. aeruginosa PAO1) (UniProt Q9HZM8).
For test [2], the target named is RNase E^1-529-Strep (P. aeruginosa PAO1) (UniProt Q9HZM8).
For test [3] the target is unchanged. This is another data set of the same source.
The target in test [4] is RNase E^1-1057-Strep (P. aeruginosa PAO1) (UniProt Q9HZM8). The source holds these as a separate data set.

Take GdhB (from UniProt Q9HZE0 1-1620): the binding result in test [1] is listed as “binds”; in test [2], “no binding”.

“RhlE2 RNA helicase (from UniProt Q9I689) (enzyme)”: the binding result in test [1] and in test [2] was “binds” each time.

For the molecule RplL (from UniProt Q9HWC8 1-122), in test [1], the binding entry was “binds”.

RpoB (from UniProt Q51561 1-1357): in test [1], the binding result is listed as “binds”.

As for RpoC (from UniProt Q9HWC9 1-1399), the binding result in test [1] is “binds”.

B1: ArcB (enzyme, UniProt P08308 1-336)
chain: MAFNMHNRNLLSLMHHSTRELRYLLDLSRDLKRAKYTGTEQQHLKRKNIALIFEKTSTRTRCAFEVAAYDQGANVTYIDPNSSQIGHKESMKDTARVLGRMYDAIEYRGFKQEIVEELAKFAGVPVFNGLTDEYHPTQMLADVLTMREHSDKPLHDISYAYLGDARNNMGNSLLLIGAKLGMDVRIAAPKALWPHDEFVAQCKKFAEESGAKLTLTEDPKEAVKGVDFVHTDVWVSMGEPVEAWGERIKELLPYQVNMEIMKATGNPRAKFMHCLPAFHNSETKVGKQIAEQYPNLANGIEVTEDVFESPYNIAFEQAENRMHTIKAILVSTLADI
B1: in test [3], the binding result is “no binding”.

B2: T25-PNPase (enzyme, P. aeruginosa, UniProt Q9HV59 1-701, looked up)
chain: MNPVTKQFQFGQSTVTLETGRIARQATGAVLVTMDDVSVLVTVVGAKSPAEGRDFFPLSVHYQEKTYAAGRIPGGFFKREGRPSEKETLTSRLIDRPIRPLFPEGFMNEVQVVCTVVSTNKKSDPDIAAMIGTSAALAISGIPFAGPIGAARVGFHPEIGYILNPTYEQLQSSSLDMVVAGTEDAVLMVESEADELTEDQMLGAVLFAHDEFQAVIRAVKELAAEAGKPAWDWKAPAENTVLVNAIKAELGEAISQAYTITIKQDRYNRLGELRDQAVALFAGEEEGKFPASEVKDVFGLLEYRTVRENIVNGKPRIDGRDTRTVRPLRIEVGVLGKTHGSALFTRGETQALVVATLGTARDAQLLDTLEGERKDAFMLHYNFPPFSVGECGRMGSPGRREIGHGRLARRGVAAMLPTQDEFPYTIRVVSEITESNGSSSMASVCGASLALMDAGVPVKAPVAGIAMGLVKEGEKFAVLTDILGDEDHLGDMDFKVAGTDKGVTALQMDIKINGITEEIMEIALGQALEARLNILGQMNQVIAKPRAELSENAPTMLQMKIDSDKIRDVIGKGGATIRGICEETKASIDIEDDGSVKIYGETKEAAEAAKLRVLAITAEAEIGKIYVGKVERIVDFGAFVNILPGKDGLVHISQISDKRIDKVTDVLQEGQEVKVLVLDVDNRGRIKLSIKDVAAAEASGV
notes: Polyribonucleotide phosphorylase (PNPase), P. aeruginosa, pnp; source: bacterial two-hybrid fusion (pKT25), E. coli BTH101
B2: the binding entry in test [4] is “binds”; in test [3] it was “no binding”.
